These are yes or no findings as the source states them, for the method shown. Binding seen in cells or lysates may run through a third protein. Here binding means that the protein was enriched with, or labelled near, the bait; the list need not be complete.
biological target: endogenous TARDBP (human (endogenous in T23)) (UniProt Q13148); experiment: affinity purification with mass spectrometry; nuclear lysate of T23 cells (high salt extraction, RIPA added); 2.2 mg nuclear proteins co-immunoprecipitated with anti-TARDBP antibody (Dynabeads Co-Immunoprecipitation Kit); LC-MS/MS

The chains behind the UniProt entries cited, without tags or fusion partners.
UniProt P26599: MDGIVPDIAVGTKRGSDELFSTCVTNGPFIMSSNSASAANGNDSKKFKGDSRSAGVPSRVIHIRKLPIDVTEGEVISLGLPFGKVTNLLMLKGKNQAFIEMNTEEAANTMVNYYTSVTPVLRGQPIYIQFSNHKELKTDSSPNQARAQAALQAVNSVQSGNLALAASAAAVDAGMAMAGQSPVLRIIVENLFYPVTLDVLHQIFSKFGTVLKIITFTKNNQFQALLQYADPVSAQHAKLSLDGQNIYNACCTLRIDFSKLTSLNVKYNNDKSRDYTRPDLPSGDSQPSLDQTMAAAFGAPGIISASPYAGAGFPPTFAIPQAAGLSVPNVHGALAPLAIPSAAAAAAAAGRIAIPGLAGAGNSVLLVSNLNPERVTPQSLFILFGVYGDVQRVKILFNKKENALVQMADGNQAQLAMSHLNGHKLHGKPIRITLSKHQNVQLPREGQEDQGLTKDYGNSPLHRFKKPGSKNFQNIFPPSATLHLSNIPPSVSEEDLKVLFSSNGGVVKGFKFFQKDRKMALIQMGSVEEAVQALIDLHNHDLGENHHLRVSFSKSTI
UniProt P09874: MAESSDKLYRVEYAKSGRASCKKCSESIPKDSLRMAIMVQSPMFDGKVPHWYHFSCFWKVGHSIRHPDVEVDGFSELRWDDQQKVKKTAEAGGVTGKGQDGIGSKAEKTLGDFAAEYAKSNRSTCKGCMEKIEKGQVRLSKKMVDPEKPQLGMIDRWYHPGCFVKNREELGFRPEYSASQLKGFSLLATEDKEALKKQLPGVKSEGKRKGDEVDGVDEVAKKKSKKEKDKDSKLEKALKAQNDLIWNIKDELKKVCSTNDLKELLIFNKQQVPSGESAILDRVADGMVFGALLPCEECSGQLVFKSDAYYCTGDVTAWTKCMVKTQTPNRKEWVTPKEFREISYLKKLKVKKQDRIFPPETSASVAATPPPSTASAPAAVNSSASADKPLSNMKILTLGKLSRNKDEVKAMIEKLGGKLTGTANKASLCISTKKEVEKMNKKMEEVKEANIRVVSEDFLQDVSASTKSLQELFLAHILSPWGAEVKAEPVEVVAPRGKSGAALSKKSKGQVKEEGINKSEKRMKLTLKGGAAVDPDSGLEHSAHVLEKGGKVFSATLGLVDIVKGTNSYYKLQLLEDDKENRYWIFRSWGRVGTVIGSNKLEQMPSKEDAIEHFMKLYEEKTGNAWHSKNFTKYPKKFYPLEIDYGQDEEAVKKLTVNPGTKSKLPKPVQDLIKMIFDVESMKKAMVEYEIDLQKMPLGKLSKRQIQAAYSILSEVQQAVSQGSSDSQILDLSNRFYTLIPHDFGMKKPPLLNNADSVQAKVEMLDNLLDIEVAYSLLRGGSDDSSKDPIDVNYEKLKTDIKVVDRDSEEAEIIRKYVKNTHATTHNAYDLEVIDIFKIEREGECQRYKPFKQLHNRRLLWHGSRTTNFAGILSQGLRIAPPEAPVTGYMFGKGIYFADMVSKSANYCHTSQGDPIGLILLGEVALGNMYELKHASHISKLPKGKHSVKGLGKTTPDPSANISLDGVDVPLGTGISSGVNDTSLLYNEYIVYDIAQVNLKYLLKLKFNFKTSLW
UniProt P06748: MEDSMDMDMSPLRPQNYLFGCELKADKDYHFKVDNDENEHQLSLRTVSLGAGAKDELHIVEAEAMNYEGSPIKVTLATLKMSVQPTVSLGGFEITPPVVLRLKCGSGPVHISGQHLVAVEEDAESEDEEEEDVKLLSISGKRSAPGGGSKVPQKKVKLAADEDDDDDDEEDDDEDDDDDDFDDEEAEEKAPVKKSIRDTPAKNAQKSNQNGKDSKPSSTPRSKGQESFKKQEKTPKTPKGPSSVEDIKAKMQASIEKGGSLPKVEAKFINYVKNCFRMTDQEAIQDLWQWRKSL

binding	Substance
binds	PTBP1 (from UniProt P26599 1-557)
binds	PARP1 (from UniProt P09874 1-1014)
binds	NPM1 (from UniProt P06748 1-294)
binds	HNRNPK (from UniProt P61978 1-463)
